Data on one molecule can be found in patent US20250026849A1 (ARCELLX, published 2025).

Experiment [1] concerns the target T1, cg06-BCMA Adapter (SEQ ID NO: 1082).
T1 construct: also called CD123-specific Adapter with a BCMA antigenic determinant
T1 chain: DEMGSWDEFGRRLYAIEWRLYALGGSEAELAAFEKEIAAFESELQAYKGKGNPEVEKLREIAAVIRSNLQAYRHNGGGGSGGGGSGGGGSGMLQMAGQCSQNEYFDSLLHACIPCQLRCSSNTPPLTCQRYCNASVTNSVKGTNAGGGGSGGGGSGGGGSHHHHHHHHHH
In words: flow cytometry: CAR transduced Jurkat cells incubated with 0.5 µg His-tagged Adapter, stained with anti-HIS PE (FIG. 2A). On the procedure: (§1) FIGS. 2A-2B: Adapter binding associates with the Adapter and CAR binding specificity. Jurkat NFAT-Luciferase reporter cells were transduced with a negative control CAR (α3D), an AFP (p26)-binding CAR (af03), or a BCMA-binding CAR (bc40). In FIG. 2A, CAR transduced Jurkat cells were incubated with 0.5 μg of Adapter protein (4° C. for 20 minutes), washed, and then stained with anti-HIS PE (clone J095G46, 4° C. for 20 minutes).

Experiment [2] deals with T2, α3D-BCMA Adapter (SEQ ID NO: 1083).
T2 construct: Soluble fusion of the targetless α3D domain, linkers, the BCMA extracellular domain and a His tag
T2 chain: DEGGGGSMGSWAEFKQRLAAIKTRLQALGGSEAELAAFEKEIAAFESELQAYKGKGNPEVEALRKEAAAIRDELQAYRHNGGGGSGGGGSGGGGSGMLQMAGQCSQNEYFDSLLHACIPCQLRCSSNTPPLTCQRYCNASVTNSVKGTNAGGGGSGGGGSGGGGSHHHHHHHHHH
The experiment is described as above. The method, then: as §1

B1: BCMA-binding CAR (bc40, SEQ ID NO: 1091) (other)
chain: DYKDDDDKGGGGSGGGGSMGSWSEFWVRLGAIRERLDALGGSEAELAAFEKEIAAFESELQAYKGKGNPEVEKLRYTAATIRRFLQAYRHNGGGGSGGGGSGTTTPAPRPPTPAPTIASQPLSLRPEACRPAAGGAVHTRGLDFACDIYIWAPLAGTCGVLLLSLVITLYCKRGRKKLLYIFKQPFMRPVQTTQEEDGCSCRFPEEEEGGCELRVKFSRSADAPAYKQGQNQLYNELNLGRREEYDVLDKRRGRDPEMGGKPRRKNPQEGLYNELQKDKMAEAYSEIGMKGERRRGKGHDGLYQGLSTATKDTYDALHMQALPPR
notes: Chimeric antigen receptor with a D domain, on Jurkat reporter cells or human T cells; also called BCMA-specific D domain CAR (bc40); CTsp-Flag-GSlinker-bc40-GSlinker-CD8H-TM-41BB-CD3ζ
On to B1, for which the binding result in experiment [1] and in experiment [2] was “binds” each time.
